The data set can be described thus: general procedure: Fmoc solid-phase peptide synthesis; Rink Amide MBHA; TBTU/HOBt/DIEA. Conditions: whole synthesis, scale 2.0 grams of Rink Amide MBHA resin (0.65 mmole/g).

Take “D-Phe-c(Cys-Tyr(I)-D-Trp-Lys-Val-Cys)-Thr-NH2”: the isolated mass worked out at 589 mg. For the same substance, the “final HPLC purity” value (analytical HPLC and mass spectrometry) is reported as more than 99%.
